The other results are listed elsewhere or left out.
Each target was assayed with Cc1sc2c(c1C)C(c1ccc(Cl)cc1)=N[C@@H](CC(=O)OC(C)(C)C)c1nnc(C)n1-2 (assay: log2 fold change, soluble protein after heating vs DMSO (PISA); higher = thermal stabilisation; K562 lysate, 10 uM; active = over 0.2 and 3.5 SD of the protein, either way, in both replicates (recomputed)).
Outline: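 The values are log-two fold changes in thermal stability compared with solvent controls and come from duplicates. They were obtained by TMTpro 16plex LC-MS/MS, with channel sums equalised, on the supernatant after 21,000xg for 90 min. That supernatant came from crude K562 extract at 1 mg/mL protein treated with 10 μM compound for 30 min, heated for 3 min across 48°C-58°C, pooled and brought to 0.5% NP-40 at 4°C.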

Protein sequences, listed by entry. Tags and fused reporters are not part of them. Lines headed by an entry give the natural chain unless they say otherwise; changes in a name come on top.
UniProt Q8N6H7: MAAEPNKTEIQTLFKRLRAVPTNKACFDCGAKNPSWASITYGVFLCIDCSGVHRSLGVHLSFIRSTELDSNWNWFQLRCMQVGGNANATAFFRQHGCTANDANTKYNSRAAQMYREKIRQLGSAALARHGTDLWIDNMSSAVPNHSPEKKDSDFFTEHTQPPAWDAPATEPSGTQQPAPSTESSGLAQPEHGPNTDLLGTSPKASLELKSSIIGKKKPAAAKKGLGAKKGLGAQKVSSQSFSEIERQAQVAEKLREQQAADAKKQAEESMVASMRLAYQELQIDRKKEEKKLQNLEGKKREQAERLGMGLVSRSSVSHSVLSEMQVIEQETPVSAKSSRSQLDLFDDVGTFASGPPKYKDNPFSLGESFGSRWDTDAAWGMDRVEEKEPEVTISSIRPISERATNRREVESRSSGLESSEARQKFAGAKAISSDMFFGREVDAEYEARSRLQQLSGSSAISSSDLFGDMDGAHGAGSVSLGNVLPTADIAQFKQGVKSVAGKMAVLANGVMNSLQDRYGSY
UniProt P53367: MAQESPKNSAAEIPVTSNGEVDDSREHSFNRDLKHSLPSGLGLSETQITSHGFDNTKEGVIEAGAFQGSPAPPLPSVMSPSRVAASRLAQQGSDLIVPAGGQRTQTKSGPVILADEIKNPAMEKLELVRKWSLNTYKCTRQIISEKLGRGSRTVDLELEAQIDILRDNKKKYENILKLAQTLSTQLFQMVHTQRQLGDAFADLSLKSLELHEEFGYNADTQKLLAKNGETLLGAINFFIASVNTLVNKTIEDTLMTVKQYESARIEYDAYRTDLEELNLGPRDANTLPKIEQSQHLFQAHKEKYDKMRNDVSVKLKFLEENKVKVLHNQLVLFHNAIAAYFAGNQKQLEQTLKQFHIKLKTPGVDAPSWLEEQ
UniProt Q9Y6D6: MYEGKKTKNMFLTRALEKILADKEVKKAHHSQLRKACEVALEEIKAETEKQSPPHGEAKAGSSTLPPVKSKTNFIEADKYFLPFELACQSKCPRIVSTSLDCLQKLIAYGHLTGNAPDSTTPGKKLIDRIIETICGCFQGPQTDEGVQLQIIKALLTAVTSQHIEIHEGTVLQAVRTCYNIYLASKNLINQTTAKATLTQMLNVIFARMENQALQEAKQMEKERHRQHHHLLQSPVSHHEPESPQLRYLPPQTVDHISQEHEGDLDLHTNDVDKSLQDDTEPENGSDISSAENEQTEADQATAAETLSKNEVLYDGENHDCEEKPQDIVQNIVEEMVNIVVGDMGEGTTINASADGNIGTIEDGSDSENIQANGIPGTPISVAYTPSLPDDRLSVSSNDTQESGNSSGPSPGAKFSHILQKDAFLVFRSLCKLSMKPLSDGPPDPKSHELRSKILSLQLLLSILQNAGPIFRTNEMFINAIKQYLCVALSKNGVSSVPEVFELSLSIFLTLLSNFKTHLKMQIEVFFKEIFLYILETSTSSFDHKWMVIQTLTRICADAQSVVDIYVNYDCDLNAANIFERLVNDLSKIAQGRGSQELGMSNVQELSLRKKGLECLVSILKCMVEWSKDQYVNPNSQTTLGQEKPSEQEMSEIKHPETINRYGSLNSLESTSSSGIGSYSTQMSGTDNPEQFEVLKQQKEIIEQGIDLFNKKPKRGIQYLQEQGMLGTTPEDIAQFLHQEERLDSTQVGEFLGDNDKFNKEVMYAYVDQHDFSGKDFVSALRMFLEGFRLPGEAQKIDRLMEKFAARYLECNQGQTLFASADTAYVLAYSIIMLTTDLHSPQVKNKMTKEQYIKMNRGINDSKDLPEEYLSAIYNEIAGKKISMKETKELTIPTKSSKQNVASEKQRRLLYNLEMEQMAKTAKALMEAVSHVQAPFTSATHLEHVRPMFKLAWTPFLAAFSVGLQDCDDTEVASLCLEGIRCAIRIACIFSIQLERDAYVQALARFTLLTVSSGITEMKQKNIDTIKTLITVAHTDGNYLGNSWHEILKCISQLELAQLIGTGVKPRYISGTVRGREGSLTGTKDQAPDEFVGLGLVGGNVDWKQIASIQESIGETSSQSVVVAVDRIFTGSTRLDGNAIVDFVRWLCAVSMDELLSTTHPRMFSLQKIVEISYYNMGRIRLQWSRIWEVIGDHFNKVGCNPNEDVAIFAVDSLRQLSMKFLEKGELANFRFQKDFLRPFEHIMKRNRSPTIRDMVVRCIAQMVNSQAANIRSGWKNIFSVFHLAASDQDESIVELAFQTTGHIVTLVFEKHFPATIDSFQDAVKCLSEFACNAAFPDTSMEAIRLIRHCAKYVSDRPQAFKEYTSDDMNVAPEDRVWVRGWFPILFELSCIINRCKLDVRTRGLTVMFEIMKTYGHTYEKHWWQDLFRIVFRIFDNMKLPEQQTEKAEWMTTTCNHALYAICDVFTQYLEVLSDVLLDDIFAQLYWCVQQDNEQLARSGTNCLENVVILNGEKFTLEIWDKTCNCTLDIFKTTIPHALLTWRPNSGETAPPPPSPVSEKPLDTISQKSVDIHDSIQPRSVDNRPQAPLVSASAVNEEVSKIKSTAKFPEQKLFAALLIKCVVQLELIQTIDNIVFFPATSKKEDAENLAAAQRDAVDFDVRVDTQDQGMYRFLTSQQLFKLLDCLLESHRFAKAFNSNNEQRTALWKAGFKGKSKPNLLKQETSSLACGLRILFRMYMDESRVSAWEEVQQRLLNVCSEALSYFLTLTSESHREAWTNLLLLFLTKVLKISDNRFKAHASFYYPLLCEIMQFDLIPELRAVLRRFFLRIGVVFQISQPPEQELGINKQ
UniProt O14497, whole entry, looked up: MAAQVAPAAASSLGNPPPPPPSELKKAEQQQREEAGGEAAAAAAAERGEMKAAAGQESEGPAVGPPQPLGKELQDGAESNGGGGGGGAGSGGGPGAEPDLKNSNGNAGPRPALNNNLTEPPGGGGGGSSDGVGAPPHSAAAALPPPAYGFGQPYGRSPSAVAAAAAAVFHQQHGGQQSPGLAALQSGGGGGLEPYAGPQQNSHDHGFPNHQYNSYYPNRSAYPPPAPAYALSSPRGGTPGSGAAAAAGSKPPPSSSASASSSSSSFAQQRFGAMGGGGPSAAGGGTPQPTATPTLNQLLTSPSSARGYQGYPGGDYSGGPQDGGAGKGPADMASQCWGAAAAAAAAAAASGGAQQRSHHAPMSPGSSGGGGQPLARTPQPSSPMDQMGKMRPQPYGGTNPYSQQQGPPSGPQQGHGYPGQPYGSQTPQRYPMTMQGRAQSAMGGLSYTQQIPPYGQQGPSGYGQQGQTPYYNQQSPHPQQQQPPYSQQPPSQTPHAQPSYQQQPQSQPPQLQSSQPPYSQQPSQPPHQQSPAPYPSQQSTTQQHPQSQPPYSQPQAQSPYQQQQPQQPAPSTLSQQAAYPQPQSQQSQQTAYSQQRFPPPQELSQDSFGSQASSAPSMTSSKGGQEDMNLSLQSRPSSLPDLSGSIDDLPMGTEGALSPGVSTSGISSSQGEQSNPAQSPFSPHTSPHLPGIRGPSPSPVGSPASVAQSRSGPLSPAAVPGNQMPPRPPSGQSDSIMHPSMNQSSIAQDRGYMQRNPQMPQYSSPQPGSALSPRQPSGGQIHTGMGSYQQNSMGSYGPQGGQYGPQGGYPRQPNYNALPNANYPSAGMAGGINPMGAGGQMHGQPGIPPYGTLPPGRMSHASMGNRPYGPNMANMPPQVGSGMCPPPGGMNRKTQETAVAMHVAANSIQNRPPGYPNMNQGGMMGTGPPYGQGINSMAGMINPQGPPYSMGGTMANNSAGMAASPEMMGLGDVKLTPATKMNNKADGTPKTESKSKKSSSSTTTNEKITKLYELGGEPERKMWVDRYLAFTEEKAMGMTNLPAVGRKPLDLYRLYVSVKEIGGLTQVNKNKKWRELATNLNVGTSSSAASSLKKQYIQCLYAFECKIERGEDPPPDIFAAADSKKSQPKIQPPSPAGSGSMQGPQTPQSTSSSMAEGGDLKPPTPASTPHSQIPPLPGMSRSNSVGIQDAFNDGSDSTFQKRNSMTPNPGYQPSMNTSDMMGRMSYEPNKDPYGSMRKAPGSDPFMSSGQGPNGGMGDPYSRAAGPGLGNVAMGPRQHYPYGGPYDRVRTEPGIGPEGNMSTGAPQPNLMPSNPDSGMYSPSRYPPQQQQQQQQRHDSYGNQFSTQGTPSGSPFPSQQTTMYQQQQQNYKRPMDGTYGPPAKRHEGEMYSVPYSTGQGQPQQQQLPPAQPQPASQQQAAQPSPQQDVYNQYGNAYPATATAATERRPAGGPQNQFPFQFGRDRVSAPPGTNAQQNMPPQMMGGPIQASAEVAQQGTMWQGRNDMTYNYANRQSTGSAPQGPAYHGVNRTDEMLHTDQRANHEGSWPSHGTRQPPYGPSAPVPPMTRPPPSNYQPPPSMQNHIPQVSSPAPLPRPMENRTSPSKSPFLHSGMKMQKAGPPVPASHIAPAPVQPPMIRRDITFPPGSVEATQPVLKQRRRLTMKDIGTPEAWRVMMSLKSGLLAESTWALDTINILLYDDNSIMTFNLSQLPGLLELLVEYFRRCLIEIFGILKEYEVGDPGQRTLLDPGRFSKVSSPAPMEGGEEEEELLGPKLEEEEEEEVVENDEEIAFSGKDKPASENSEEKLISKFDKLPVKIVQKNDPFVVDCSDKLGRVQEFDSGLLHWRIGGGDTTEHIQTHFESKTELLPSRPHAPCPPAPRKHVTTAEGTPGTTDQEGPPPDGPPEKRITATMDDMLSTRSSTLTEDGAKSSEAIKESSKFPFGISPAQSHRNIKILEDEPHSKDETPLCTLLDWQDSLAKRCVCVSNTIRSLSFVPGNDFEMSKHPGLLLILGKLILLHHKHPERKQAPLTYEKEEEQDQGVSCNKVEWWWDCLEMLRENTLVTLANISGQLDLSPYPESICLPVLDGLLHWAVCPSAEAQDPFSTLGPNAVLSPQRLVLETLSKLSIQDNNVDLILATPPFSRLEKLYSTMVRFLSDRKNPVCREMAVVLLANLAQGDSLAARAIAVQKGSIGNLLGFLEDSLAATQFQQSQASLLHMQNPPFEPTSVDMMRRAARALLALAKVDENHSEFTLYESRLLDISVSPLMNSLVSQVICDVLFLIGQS
UniProt Q3SXY8: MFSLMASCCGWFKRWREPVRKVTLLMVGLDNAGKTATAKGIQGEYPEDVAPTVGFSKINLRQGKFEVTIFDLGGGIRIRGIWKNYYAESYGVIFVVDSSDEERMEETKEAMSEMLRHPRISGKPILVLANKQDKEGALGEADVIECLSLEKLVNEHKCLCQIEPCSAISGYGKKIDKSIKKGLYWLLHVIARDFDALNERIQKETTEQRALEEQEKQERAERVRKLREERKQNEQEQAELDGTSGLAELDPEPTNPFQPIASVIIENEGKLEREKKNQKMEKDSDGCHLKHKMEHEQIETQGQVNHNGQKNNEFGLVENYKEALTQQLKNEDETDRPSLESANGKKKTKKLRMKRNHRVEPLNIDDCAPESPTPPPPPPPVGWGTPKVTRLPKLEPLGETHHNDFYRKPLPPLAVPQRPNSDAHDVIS
UniProt P07741: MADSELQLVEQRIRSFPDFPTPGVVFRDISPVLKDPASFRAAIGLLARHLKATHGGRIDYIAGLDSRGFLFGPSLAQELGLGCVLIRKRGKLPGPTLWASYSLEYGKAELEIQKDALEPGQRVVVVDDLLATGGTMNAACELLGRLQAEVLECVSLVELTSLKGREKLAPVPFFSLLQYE
UniProt Q13510, whole entry, looked up: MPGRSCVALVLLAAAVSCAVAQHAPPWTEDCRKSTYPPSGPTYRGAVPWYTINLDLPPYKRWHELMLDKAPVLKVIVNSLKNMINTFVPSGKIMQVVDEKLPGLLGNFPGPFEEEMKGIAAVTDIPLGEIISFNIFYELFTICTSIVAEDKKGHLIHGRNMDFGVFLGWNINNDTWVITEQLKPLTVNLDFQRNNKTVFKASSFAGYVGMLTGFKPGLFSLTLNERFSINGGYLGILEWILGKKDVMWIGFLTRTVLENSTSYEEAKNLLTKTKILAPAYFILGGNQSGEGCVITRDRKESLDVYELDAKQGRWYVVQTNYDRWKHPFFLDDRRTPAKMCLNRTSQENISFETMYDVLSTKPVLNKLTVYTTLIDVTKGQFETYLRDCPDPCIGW
UniProt Q9HC16: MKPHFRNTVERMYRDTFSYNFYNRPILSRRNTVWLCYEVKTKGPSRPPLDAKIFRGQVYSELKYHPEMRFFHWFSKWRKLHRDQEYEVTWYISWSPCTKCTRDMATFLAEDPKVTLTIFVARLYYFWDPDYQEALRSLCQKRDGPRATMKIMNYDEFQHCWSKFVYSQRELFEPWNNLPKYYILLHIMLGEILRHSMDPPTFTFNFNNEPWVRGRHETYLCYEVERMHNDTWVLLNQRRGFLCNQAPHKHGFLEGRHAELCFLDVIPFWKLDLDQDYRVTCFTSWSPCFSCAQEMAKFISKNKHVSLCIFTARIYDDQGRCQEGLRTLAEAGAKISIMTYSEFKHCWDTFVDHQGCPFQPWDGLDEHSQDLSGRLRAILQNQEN
UniProt P61204: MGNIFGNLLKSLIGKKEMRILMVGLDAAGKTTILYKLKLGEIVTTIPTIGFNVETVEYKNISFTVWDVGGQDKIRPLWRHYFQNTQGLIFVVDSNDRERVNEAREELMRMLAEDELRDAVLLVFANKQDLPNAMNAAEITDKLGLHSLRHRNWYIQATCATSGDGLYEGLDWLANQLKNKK

Row | Target | log2 fold change
1 | ARFGAP2 (UniProt Q8N6H7) | inactive: 0.03
2 | ARFIP1 isoform 2 (UniProt P53367) | inactive: -0.094
3 | ARFGEF1 (UniProt Q9Y6D6) | inactive: 0.006
4 | ARID1A (UniProt O14497) | inactive: 0.026
5 | ARPC1B (UniProt O15143) | inactive: 0.035
6 | ARL13B (UniProt Q3SXY8) | inactive: 0.019
7 | ARHGAP17 (UniProt Q68EM7) | inactive: 0.009
8 | APRT (UniProt P07741) | inactive: 0.023
9 | ASAH1 isoform 2 (UniProt Q13510) | inactive: 0.005
10 | APOBEC3G (UniProt Q9HC16) | inactive: -0.055
11 | ARPC1A (UniProt Q92747) | inactive: -0.029
12 | ARF3 (UniProt P61204) | inactive: 0.045

Rewritten as labelled records: part of the list above
ARPC1A (UniProt Q92747)
  log2 fold change: inactive: -0.029
ARF3 (UniProt P61204)
  log2 fold change: inactive: 0.045

Source: the supplement of paper PMC10849652
